Test [1] deals with T1, HA-p100 (UniProt Q00653).
T1 sequence: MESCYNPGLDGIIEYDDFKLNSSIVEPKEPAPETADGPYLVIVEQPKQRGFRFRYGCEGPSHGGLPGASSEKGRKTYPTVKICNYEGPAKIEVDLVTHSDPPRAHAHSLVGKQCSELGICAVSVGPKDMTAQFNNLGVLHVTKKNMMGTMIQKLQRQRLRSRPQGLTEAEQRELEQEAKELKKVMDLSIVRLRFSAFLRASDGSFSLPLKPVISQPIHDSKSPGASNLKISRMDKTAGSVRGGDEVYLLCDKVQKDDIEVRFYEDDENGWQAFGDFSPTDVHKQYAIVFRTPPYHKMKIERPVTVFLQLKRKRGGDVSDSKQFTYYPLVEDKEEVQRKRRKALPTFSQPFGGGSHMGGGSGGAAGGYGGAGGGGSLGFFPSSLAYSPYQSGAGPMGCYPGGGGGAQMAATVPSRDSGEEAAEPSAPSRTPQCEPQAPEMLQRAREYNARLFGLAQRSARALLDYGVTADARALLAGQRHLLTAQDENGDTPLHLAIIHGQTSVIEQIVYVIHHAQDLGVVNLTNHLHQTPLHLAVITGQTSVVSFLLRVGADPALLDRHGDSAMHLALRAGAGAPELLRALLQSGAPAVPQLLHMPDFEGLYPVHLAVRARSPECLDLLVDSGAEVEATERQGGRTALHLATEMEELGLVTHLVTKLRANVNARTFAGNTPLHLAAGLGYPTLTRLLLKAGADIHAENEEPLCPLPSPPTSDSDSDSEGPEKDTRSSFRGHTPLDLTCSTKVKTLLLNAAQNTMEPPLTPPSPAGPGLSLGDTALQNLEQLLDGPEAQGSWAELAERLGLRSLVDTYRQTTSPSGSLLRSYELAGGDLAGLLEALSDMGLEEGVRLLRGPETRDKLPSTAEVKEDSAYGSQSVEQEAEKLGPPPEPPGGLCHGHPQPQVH
As to the kind of experiment: co-IP; extracts of HEK293T cells transfected with tagged constructs; in some panels treated with EBSS and Baf.

The target in test [2] is T2, HA-p52 (UniProt Q00653).
T2 sequence: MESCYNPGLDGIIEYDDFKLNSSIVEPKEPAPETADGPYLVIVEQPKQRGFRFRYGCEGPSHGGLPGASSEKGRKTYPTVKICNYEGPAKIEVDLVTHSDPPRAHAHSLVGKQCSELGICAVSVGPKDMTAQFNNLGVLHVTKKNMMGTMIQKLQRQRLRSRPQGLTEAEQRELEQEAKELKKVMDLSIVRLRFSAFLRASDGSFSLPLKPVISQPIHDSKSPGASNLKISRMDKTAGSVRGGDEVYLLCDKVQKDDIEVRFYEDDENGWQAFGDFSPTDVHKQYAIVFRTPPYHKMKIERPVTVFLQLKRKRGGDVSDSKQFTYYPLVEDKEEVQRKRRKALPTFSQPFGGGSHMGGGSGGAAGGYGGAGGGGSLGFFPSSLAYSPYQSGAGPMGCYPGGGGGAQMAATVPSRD
The test is described as above.

The target of test [3] is T3, Flag-p52 (1–415 aa) (UniProt Q00653).
T3 sequence: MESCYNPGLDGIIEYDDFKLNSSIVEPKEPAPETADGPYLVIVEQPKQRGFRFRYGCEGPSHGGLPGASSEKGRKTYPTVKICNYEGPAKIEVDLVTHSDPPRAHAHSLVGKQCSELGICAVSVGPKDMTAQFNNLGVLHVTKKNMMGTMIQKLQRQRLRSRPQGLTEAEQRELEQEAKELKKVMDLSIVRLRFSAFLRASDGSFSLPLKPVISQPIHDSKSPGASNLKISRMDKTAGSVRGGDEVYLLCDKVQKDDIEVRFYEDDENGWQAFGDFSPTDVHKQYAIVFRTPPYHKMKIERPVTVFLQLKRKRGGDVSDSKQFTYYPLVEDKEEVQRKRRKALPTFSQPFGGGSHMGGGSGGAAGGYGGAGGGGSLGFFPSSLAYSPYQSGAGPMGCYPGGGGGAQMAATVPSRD
The description is as above.

Test [4] addresses T4, Flag-p100 (FL) (UniProt Q00653).
T4 sequence: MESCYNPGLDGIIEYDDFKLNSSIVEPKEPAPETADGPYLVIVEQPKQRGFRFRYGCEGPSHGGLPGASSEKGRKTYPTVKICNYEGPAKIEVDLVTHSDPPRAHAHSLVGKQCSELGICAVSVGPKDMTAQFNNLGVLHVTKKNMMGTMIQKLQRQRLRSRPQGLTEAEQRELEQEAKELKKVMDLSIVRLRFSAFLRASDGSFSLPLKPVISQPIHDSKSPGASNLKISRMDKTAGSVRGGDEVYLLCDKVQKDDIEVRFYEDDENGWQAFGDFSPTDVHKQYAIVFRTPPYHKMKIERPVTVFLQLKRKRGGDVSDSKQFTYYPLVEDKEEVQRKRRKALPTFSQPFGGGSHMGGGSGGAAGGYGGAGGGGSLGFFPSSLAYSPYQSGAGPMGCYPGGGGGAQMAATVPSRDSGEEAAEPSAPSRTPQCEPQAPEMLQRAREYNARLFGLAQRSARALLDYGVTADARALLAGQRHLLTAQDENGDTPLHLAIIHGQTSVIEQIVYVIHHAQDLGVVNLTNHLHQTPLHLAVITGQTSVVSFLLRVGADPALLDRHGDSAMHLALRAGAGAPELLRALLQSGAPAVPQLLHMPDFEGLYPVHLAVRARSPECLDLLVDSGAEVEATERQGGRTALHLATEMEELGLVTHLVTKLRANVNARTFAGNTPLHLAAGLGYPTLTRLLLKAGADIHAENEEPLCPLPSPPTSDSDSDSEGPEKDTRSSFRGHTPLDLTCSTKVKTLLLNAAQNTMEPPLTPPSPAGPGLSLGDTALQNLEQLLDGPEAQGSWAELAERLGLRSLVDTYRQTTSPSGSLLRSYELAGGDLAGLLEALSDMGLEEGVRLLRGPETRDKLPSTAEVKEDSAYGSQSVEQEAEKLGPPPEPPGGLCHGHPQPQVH
The test is described as above.

Test [5] deals with T1, HA-p100. The description is as above. The source holds these as a separate data set.
Test [6] concerns the target T5, p100 (endogenous, human cells) (human (endogenous in HeLa, THP-1, PBMCs)) (UniProt Q00653).
T5 sequence: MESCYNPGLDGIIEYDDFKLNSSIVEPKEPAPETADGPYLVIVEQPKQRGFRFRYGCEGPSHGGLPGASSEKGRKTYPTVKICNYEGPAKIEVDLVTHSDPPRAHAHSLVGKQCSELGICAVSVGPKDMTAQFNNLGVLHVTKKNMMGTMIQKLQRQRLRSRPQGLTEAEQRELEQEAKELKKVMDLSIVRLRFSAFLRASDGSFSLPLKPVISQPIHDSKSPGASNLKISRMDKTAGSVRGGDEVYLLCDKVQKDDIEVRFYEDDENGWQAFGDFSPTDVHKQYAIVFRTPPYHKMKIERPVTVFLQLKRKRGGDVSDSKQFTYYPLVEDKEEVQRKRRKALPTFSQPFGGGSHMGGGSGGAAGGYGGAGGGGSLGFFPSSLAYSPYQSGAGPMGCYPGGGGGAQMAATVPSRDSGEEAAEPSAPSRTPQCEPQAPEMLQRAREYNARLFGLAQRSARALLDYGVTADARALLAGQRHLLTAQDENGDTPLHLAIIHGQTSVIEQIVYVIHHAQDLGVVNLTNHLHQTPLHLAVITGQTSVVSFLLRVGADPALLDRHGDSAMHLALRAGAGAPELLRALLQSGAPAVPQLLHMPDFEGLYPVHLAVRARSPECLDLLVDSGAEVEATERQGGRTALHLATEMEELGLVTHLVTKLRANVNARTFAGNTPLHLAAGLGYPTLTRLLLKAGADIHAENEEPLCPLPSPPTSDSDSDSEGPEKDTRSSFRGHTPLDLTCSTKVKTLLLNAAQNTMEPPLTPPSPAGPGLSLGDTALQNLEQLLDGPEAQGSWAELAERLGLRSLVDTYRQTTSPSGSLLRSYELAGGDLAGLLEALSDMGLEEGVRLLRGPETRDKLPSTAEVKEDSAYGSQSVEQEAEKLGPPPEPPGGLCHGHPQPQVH
As to the kind of experiment: co-IP; endogenous proteins; extracts of HeLa, THP-1, BMDMs or PBMCs treated with different stimuli (TNFα, EBSS); WT BMDMs compared with Trim14−/− BMDMs.

Like-named read-outs stand apart in the source and are kept apart here. Results are given in words; binding and its absence hold for the method and conditions named. Binding seen in cells or lysates may run through a third protein. Some binding calls cover weakened binding; strength is not graded here. For part of these data: Sequences can lack the tags named with a protein.

In the case of Flag-p62 (from UniProt Q13501 1-440), the binding result in test [1] and in test [2] was “binds” each time.
In the case of “Flag-/Myc-p62 (from UniProt Q13501 1-440)”, the binding entry in test [3] and in test [4] was “binds” in each case.

B1: Flag-NDP52 (protein, UniProt Q13137 1-446)
chain: MEETIKDPPTSAVLLDHCHFSQVIFNSVEKFYIPGGDVTCHYTFTQHFIPRRKDWIGIFRVGWKTTREYYTFMWVTLPIDLNNKSAKQQEVQFKAYYLPKDDEYYQFCYVDEDGVVRGASIPFQFRPENEEDILVVTTQGEVEEIEQHNKELCKENQELKDSCISLQKQNSDMQAELQKKQEELETLQSINKKLELKVKEQKDYWETELLQLKEQNQKMSSENEKMGIRVDQLQAQLSTQEKEMEKLVQGDQDKTEQLEQLKKENDHLFLSLTEQRKDQKKLEQTVEQMKQNETTAMKKQQELMDENFDLSKRLSENEIICNALQRQKERLEGENDLLKRENSRLLSYMGLDFNSLPYQVPTSDEGGARQNPGLAYGNPYSGIQESSSPSPLSIKKCPICKADDICDHTLEQQQMQPLCFNCPICDKIFPATEKQIFEDHVFCHSL
B1: the binding entry in test [5] is on record as “binds”.

B2: TRIM14 (endogenous, human cells) (protein, UniProt Q14142 1-442)
chain: MAGAATGSRTPGRSELVEGCGWRCPEHGDRVAELFCRRCRRCVCALCPVLGAHRGHPVGLALEAAVHVQKLSQECLKQLAIKKQQHIDNITQIEDATEKLKANAESSKTWLKGKFTELRLLLDEEEALAKKFIDKNTQLTLQVYREQADSCREQLDIMNDLSNRVWSISQEPDPVQRLQAYTATEQEMQQQMSLGELCHPVPLSFEPVKSFFKGLVEAVESTLQTPLDIRLKESINCQLSDPSSTKPGTLLKTSPSPERSLLLKYARTPTLDPDTMHARLRLSADRLTVRCGLLGSLGPVPVLRFDALWQVLARDCFATGRHYWEVDVQEAGAGWWVGAAYASLRRRGASAAARLGCNRQSWCLKRYDLEYWAFHDGQRSRLRPRDDLDRLGVFLDYEAGVLAFYDVTGGMSHLHTFRATFQEPLYPALRLWEGAISIPRLP
B2: the binding result in test [6] is “binds”.

These data come from article PMC6947505.
